# Some results were stated once for a whole list of compounds, not compound by compound.
# Tested on: U-87 MG cells
# Test: Tumor cell growth inhibition (MTS assay)
# Format: cell-based
# Conditions: 10 μM protein (thrombin 2 U), fusion without thrombin
# Description: Tumor Cell Growth Inhibition. All proteins were incubated with thrombin at 37° C. for two hours prior to cellular assays. Malignant glioma cells, U-87 MG, (ATCC, Manassas, Va., 3,000 cells/cm^2) were seeded in a 96 well plate together with appropriate treatments in 100 μL DMEM and 10% FCS (Sigma-Aldrich, St. Louis, Mo.). Treatments included a cell only control (untreated), thrombin (2 U), GST (10 μM), GST-6xHis-melittin (10 μM), GST-6xHis-melittin (10 μM) simultaneously with thrombin (2 U), or synthetic melittin (10 μM; GenScript RP20415, Sigma-Aldrich, St. Louis, Mo.). The cells with their respective treatments were incubated at 37° C. in 5% CO2 overnight, approximately 16 hours. The MTS assay (Promega, Madison, Wis., CellTitre96) was performed according to the manufacturer recommendation and incubated for two hours before reading absorbance at 495 nm on a Labsystems Multiskan plus plate reader (Thermo Scientific, Hanover Park, Ill.).
substance,measurement,value
thrombin,survival of U-87 MG cells,at least 85%
